The supplement of paper PMC7666118
The list shows a part of the results.

Amino acid sequences for entries named in this document (tags omitted). A change or cut given only in a name is not applied to a line headed by its entry.
UniProt Q86XA9: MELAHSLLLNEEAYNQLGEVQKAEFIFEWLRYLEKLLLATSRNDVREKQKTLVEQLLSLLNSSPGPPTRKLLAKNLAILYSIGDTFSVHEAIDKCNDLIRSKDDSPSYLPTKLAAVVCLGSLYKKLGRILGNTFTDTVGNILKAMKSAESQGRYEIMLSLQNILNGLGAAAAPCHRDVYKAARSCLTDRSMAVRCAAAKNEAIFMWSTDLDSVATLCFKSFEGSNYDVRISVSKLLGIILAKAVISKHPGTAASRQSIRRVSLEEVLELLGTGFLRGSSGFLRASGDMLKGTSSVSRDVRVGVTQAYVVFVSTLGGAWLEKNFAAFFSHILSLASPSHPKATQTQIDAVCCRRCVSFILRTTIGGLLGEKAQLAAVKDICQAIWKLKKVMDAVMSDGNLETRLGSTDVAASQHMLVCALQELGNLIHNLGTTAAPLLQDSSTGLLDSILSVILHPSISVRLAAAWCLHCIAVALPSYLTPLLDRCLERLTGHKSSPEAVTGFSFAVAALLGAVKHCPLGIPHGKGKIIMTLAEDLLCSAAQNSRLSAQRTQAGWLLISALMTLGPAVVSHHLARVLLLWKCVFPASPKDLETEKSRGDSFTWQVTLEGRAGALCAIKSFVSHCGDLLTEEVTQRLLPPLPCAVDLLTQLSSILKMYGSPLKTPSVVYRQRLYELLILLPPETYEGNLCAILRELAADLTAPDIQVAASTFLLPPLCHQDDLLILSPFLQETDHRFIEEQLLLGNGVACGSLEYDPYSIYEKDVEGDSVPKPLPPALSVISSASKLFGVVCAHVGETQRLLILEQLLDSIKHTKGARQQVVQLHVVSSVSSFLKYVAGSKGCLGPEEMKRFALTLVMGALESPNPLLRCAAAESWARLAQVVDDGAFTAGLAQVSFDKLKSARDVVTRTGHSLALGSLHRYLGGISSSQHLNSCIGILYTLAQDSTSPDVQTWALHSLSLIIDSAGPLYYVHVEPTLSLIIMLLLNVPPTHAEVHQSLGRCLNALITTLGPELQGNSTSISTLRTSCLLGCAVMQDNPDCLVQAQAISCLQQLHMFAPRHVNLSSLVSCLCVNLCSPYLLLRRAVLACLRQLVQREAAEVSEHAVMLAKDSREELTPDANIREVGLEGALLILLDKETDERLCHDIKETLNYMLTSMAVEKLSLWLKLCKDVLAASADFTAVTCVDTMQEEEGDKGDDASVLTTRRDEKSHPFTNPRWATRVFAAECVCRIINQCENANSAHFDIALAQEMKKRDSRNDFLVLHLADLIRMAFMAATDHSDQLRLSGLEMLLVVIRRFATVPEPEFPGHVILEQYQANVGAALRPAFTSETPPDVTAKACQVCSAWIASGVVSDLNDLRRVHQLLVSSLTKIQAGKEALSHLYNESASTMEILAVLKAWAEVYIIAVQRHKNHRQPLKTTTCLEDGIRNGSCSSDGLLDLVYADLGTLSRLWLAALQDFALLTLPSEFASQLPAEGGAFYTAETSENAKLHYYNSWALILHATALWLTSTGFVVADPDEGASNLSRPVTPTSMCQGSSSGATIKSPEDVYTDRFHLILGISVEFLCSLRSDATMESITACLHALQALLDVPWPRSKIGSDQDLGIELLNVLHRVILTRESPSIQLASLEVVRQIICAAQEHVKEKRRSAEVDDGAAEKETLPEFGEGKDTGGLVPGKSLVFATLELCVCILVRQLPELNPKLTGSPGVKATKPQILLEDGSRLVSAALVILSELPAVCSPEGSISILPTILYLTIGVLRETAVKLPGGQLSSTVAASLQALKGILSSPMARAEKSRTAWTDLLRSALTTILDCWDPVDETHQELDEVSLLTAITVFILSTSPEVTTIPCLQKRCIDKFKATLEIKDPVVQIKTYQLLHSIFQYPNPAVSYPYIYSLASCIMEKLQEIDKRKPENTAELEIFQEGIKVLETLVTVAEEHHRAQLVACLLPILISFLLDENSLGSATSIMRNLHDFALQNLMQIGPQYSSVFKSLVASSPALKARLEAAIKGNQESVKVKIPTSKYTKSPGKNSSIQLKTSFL
UniProt P17900: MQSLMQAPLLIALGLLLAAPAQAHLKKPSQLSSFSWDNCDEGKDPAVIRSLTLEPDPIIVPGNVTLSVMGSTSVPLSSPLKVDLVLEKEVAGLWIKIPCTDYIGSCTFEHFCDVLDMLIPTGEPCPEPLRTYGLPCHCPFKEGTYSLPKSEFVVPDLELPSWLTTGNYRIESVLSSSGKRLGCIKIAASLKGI
UniProt O76003: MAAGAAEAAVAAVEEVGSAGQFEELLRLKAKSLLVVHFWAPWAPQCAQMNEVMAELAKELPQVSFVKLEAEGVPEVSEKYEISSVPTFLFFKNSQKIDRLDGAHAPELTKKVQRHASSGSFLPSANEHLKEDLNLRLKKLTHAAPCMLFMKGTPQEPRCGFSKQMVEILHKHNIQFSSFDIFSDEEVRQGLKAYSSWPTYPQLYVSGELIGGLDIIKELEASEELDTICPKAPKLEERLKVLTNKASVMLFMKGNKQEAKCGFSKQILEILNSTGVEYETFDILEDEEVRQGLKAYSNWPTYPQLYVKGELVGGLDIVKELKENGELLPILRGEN
UniProt Q8IWJ2: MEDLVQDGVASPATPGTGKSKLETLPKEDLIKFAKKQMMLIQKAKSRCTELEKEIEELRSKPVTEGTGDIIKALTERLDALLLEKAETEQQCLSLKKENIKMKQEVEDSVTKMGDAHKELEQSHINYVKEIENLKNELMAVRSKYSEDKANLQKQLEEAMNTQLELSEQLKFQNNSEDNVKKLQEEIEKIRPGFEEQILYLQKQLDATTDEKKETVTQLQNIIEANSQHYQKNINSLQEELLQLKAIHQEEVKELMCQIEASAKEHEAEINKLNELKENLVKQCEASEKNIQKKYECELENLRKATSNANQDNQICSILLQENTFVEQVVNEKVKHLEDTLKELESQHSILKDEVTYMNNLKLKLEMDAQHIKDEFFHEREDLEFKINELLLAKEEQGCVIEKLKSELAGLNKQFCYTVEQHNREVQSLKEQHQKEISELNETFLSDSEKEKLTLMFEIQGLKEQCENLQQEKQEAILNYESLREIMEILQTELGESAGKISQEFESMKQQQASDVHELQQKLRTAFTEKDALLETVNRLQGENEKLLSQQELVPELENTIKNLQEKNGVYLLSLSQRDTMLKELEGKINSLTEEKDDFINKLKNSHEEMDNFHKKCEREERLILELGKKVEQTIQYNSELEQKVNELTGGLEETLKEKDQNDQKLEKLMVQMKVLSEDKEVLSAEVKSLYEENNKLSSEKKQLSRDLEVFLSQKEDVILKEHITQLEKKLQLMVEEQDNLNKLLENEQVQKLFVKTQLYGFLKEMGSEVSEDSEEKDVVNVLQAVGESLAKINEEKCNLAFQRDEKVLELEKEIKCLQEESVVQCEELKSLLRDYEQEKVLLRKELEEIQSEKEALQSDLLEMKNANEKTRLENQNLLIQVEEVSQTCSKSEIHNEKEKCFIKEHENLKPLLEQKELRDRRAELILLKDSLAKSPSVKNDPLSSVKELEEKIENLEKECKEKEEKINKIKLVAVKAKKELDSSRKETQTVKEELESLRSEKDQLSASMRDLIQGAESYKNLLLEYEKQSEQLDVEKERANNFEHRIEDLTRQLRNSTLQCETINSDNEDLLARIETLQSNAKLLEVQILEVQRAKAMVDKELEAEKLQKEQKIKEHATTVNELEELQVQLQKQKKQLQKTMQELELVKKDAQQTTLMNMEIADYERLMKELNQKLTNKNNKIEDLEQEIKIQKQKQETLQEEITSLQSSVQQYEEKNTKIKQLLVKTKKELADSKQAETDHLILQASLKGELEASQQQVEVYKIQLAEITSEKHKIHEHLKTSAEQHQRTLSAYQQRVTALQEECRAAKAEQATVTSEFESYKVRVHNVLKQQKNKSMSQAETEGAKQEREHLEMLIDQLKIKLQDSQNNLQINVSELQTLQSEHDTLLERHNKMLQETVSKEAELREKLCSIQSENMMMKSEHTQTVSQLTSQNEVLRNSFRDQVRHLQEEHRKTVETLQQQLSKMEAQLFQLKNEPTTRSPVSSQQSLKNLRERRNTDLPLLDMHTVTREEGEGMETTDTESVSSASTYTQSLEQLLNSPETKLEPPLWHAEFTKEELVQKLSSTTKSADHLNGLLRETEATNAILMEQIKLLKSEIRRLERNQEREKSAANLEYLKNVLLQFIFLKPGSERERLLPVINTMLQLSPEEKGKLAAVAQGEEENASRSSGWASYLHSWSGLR
UniProt P43304: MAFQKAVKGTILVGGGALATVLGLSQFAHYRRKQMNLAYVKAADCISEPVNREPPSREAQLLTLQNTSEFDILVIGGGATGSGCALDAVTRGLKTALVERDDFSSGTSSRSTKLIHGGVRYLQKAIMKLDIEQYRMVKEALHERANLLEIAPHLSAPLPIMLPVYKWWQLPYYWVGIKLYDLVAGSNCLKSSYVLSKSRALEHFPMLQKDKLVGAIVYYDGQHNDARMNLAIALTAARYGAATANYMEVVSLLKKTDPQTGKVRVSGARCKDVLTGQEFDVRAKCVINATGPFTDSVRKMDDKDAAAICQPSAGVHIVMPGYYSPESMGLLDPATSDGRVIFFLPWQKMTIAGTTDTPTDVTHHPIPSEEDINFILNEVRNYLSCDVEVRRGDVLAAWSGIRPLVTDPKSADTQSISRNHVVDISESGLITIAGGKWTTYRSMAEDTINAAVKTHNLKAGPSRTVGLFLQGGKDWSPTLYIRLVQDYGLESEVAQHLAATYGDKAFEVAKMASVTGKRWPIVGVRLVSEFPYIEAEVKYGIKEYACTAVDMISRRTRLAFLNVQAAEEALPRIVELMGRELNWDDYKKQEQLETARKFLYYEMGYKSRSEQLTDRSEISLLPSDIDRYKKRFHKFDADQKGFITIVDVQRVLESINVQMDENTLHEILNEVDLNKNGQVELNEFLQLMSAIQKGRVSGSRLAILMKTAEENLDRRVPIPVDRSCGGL
UniProt Q86Y56: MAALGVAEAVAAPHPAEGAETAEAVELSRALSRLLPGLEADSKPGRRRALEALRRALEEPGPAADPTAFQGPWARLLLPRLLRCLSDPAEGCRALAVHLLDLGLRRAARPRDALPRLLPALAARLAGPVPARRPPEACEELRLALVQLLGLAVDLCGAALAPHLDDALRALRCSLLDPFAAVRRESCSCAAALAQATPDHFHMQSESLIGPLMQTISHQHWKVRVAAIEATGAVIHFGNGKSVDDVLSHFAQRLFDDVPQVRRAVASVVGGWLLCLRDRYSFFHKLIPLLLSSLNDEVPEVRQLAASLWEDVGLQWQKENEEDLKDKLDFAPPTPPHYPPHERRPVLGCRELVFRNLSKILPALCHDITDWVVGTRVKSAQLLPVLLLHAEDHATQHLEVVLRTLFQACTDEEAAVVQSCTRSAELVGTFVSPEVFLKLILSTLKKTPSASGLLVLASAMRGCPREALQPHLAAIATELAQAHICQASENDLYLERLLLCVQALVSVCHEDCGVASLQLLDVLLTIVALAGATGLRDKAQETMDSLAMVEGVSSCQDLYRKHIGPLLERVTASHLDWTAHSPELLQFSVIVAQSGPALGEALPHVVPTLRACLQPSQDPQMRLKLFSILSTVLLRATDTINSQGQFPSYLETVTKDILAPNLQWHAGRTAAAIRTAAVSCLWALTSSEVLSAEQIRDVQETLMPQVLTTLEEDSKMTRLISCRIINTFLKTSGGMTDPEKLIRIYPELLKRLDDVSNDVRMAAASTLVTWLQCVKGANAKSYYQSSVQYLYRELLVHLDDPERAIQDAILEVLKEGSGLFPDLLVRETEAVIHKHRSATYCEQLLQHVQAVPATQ
UniProt P50148, whole entry: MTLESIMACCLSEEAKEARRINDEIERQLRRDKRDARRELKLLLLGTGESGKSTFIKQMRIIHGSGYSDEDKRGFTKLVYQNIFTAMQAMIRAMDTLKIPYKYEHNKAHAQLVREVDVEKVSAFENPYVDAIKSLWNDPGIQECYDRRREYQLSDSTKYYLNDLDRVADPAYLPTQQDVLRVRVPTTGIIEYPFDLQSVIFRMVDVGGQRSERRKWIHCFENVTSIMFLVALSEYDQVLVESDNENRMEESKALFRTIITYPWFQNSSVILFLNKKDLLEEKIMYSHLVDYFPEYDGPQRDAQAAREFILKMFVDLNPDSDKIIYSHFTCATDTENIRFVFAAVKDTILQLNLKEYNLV
UniProt Q9UBQ7: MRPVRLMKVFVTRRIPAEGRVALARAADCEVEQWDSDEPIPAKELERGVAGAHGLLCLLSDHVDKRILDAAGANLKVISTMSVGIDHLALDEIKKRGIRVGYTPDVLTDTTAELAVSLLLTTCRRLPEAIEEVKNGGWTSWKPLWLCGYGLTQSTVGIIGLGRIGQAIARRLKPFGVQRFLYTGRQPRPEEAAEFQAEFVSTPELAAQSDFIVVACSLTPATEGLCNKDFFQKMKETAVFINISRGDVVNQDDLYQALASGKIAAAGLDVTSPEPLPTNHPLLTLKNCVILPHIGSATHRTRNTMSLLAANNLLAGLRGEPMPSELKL

Compound: COc1ccc(Cn2ccc3ccc(C(=O)NO)cc32)cc1
Assay: dose-dependent thermal stabilisation call (2D-TPP, DLPTP, 10% FDR) (binary (1 = stabilised)); higher = stabilised by the compound
Settings: system: HL-60 intact cells; concentration range 0.04-10 µM

Target | dose-dependent thermal stabilisation call
HELLS (UniProt Q9NRZ9) | inactive: 0
GFM2 (UniProt Q969S9) | inactive: 0
HEATR5A (UniProt Q86XA9) | inactive: 0
GDPD1 (UniProt Q8N9F7) | inactive: 0
GPR183 (UniProt P32249) | inactive: 0
HADHA (UniProt P40939) | active: 1
GHITM (UniProt Q9H3K2) | inactive: 0
GDAP1 (UniProt Q8TB36) | inactive: 0
GLUD1 (UniProt P00367) | active: 1
HDAC8 (UniProt Q9BY41) | active: 1
GM2A (UniProt P17900) | inactive: 0
GLRX3 (UniProt O76003) | inactive: 0
HADHB (UniProt P55084) | active: 1
HIST2H2BA | inactive: 0
GCC2 (UniProt Q8IWJ2) | inactive: 0
GTF2H2 (UniProt Q13888) | inactive: 0
GEMIN8 (UniProt Q9NWZ8) | inactive: 0
GGH (UniProt Q92820) | inactive: 0

3 records drawn at random from the list so far:
Target | dose-dependent thermal stabilisation call
GGH (UniProt Q92820) | inactive: 0
GPR183 (UniProt P32249) | inactive: 0
HELLS (UniProt Q9NRZ9) | inactive: 0

The list continues.

Target | dose-dependent thermal stabilisation call
GMIP (UniProt Q9P107) | inactive: 0
H3F3A (UniProt P84243) | inactive: 0
GEMIN4 (UniProt P57678) | inactive: 0
GNAS | inactive: 0
GOLGA4 (UniProt Q13439) | inactive: 0
HADH (UniProt Q16836) | inactive: 0
GUK1 (UniProt Q16774) | inactive: 0
GLS (UniProt O94925) | inactive: 0
GPD2 (UniProt P43304) | inactive: 0
HEATR2 (UniProt Q86Y56) | inactive: 0
GPR107 (UniProt Q5VW38) | inactive: 0
GPS2 (UniProt Q13227) | inactive: 0
HDAC5 (UniProt Q9UQL6) | inactive: 0
GNAQ (UniProt P50148) | inactive: 0
GRHPR (UniProt Q9UBQ7) | inactive: 0
GEMIN5 (UniProt Q8TEQ6) | inactive: 0
GNPTAB (UniProt Q3T906) | inactive: 0
GNPAT (UniProt O15228) | inactive: 0
